Test system: recombinant AlbD
Assay: AlbD enzyme assay (stability towards AlbD-mediated degradation)
Type: biochemical
Conditions: 120 µM cystobactamid, 5 µM recombinant AlbD, phosphate buffer pH 7.0, 28°C, incubation overnight (24 h), LC/MS/UV

Row | SMILES | stability towards AlbD (degradation / cleavage)
1 | C#CC[C@H](NC(=O)c1ccc(NC(=O)c2ccc(C#N)cc2)cc1)C(=O)Nc1ccc(C(=O)Nc2ccc(C(=O)Nc3ccc(C(=O)O)cc3)c(O)c2CC(C)C)cc1 [Cmpd. 11] | reduced cleavage
2 | C#CC[C@H](NC(=O)c1ccc(NC(=O)c2ccc(C#N)cc2)cc1)C(=O)Nc1ccc(NC(=O)c2ccc(C(=O)Nc3ccc(C(=O)O)cc3)c(O)c2OC(C)C)cc1 [Cmpd. 42] | fully stable
3 | CC(C)Oc1c(NC(=O)c2ccc(NC(=O)[C@H](CC(N)=O)NC(=O)c3ccc(NC(=O)c4ccc(C#N)cc4)cc3)cc2)ccc(C(=O)Nc2ccc(C(=O)O)cc2)c1O [compound 96, reference compound] | degraded

Source: publication PMC11538350, “Synthetic studies on the tetrasubstituted D-ring of cystobactamids lead to potent terephthalic acid antibiotics” (Communications Chemistry, 2024)
